The record followed here is article PMC3426532.

Sequences of proteins named here, by UniProt entry; tags and fusion partners are left off. Residues count along the entry.
UniProt Q2M405, residues 118-599: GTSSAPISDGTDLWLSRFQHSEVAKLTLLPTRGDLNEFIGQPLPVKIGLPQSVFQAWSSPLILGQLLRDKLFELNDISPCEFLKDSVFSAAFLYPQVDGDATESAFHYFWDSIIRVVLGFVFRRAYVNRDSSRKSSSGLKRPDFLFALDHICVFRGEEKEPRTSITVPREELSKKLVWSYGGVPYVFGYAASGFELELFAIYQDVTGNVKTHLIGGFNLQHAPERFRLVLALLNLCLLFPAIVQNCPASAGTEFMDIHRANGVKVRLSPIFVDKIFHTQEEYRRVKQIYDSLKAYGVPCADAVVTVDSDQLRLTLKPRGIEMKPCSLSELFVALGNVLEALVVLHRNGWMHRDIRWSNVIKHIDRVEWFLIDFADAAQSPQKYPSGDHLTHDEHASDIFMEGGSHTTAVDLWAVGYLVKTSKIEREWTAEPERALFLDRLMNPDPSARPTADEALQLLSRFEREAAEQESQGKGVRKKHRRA

For the assay, the target named is CRN8 (amino acids 118-599), FLAG- or GFP-tagged fusion protein (Phytophthora infestans) (UniProt Q2M405). Briefly: co-IP.

These are yes or no findings as the source states them, for the method shown. Binding seen in cells or lysates may run through a third protein. Some entries that bind do so weakly or less than the wild type.

Regarding “CRN8 (amino acids 118-599), FLAG- or GFP-tagged fusion protein (from UniProt Q2M405 118-599) (domain or fragment)”, the binding entry is on record as “binds”.
